Data as given in publication PMC4210090.

The chains behind the UniProt entries cited, without tags or fusion partners.
UniProt Q9EP80: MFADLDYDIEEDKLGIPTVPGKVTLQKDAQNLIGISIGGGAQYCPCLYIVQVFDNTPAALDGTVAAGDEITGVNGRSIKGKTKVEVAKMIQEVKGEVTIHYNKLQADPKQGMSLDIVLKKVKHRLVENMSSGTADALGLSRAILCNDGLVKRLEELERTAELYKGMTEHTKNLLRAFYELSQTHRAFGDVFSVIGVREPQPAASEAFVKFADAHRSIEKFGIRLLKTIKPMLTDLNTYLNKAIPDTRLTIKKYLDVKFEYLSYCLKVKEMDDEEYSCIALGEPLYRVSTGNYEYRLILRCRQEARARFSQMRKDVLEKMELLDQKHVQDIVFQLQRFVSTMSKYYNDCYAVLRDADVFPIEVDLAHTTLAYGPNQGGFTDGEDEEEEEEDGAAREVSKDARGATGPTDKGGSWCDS
UniProt Q9UKV8: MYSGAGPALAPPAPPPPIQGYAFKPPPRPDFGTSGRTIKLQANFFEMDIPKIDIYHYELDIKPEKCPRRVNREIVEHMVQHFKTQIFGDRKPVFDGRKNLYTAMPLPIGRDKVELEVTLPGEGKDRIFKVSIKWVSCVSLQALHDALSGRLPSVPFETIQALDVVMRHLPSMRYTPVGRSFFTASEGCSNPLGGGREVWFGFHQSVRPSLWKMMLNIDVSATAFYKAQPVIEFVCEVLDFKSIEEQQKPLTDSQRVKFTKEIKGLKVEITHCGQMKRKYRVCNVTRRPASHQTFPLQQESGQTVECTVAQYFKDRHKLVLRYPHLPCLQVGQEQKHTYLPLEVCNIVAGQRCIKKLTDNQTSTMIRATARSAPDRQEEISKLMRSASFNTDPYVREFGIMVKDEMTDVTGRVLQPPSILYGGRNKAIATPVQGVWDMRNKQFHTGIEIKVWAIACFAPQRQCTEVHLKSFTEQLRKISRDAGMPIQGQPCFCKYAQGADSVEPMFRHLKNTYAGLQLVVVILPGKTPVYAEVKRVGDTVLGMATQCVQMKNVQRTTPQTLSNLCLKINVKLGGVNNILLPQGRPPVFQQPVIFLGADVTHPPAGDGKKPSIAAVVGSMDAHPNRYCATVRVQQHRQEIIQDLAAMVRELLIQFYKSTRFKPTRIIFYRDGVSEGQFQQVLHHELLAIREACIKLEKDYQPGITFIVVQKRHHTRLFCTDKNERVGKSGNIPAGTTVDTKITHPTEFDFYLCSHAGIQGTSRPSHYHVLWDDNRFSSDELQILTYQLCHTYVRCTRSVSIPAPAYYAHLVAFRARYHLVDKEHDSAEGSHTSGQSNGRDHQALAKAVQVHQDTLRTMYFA

Biological target: GST-PICK1 full-length (UniProt Q9EP80)
Test: affinity purification with mass spectrometry; proteomics screen following GST-pulldowns using GST-PICK1 as bait; source of the sample not told; only the target purified

binding: binds
Substance: Ago2 identified in the proteomics screen (from UniProt Q9UKV8 1-859)

No constants are given. Whether binding was seen depends on the method and setting. Binding seen in cells or lysates may run through a third protein. A yes stands for co-enrichment or nearness to the bait. Other partners may have been found.
